Counter-ions that a name gives are not always drawn. The list shows a part of the results. This data set is noisy: repeats of one test often differ as much as different tests do.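 The human kidney-derived cells carry a stably integrated construct of eight TEAD-binding elements driving luciferase, read by luminescence in a drug-repurposing library screen. A compound counts as a hit when its signal is more than five robust Z scores above the plate mean.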
Test system: HEK293A TEAD-LUC reporter
Experiment: TEAD-luciferase reporter activity (YAP activation), robust Z score vs plate; higher = stronger YAP/TEAD activation
Conditions: 24 h

SMILES | TEAD-luciferase reporter activity (compound concentration: 200 nM) | TEAD-luciferase reporter activity (compound concentration: 2 uM) | TEAD-luciferase reporter activity (compound concentration: 10 uM)
CCC1Cn2cc([N+](=O)[O-])nc2O1 (centres undefined) | inactive: -1.32 | inactive: -0.785 | inactive: -0.473
CC(NN)c1ccccc1 (centres undefined) | inactive: -1.38 | inactive: -1.01 | inactive: -0.267
O=C1CCc2cc(C3=NNC(=O)SC3)ccc2N1 | inactive: -0.793 | inactive: 1.93 | inactive: 2.58
Cc1[nH]c(=O)c(C#N)cc1-c1ccncc1 [milri] | inactive: 1.01 | inactive: -0.623 | inactive: 0.52
Cc1c(NCCN2CCCC2)cc(Cl)cc1N1CCN(c2ncnc3[nH]nc(Br)c23)CC1 | inactive: 1.08 | inactive: 0.703 | inactive: -0.733
CCN1CCc2c3n(c4ccccc24)C(C(=O)OC)=CCC31 (centres undefined) | inactive: -0.688 | inactive: -0.802 | inactive: -0.103
CCC(=O)O[C@]1(C(C)=O)CC[C@H]2[C@@H]3CCC4=CC(=O)C=CC4(C)[C@H]3[C@@H](O)CC21C (some centres undefined) | inactive: -2.47 | inactive: -0.286 | inactive: 0.914
O=C1c2ccccc2C(=O)N1CCN1CCC(c2noc3cc(F)ccc23)CC1 | inactive: 0.773 | inactive: -0.36 | inactive: 0.184
CNC(CC(C)C)C(=O)NC1C(=O)NC(CC(N)=O)C(=O)NC2C(=O)NC3C(=O)NC(C(=O)NC(C(=O)O)c4cc(O)cc(O)c4-c4cc3ccc4O)C(O[C@H]3C[C@](C)(N)[C@@H](O)[C@@H](C)O3)c3ccc(cc3)Oc3cc2cc(c3O[C@@H]2O[C@@H](CO)[C@H](O)[C@@H](O)[C@@H]2O[C@H]2C[C@](C)(N)[C@@H](O)[C@@H](C)O2)Oc2ccc(cc2Cl)C1O (some centres undefined) [Eremomycin] | inactive: 0.451 | inactive: 0.489 | inactive: -0.666
C=C[C@@]1(C)CC(=O)[C@]2(O)[C@@]3(C)[C@@H](O)CCC(C)(C)[C@@H]3[C@H](O)[C@H](OC(C)=O)[C@@]2(C)O1 [Colforsin] | inactive: -2.19 | inactive: -1.18 | inactive: -0.851
O=C([O-])CCC(=O)OCC(NC(=O)C(Cl)Cl)C(O)c1ccc([N+](=O)[O-])cc1 (centres undefined) | inactive: 3.85 | inactive: -1.71 | inactive: 2.1
CCC1(CC)O[C@@H]2C[C@H]3[C@@H]4CCC5=CC(=O)C=CC5(C)[C@@]4(F)[C@@H](O)CC3(C)C2(C(=O)CO)O1 (some centres undefined) | inactive: 0.534 | inactive: -0.607 | inactive: -0.905
CC(CCc1ccc(C(N)=O)cc1)NCC(O)c1ccc(O)c(O)c1 (centres undefined) | inactive: 0.996 | inactive: -0.895 | inactive: -0.519
CCOC(=O)C(C)c1ccc2cc(OC)ccc2c1 (centres undefined) | inactive: 1.02 | inactive: 0.149 | inactive: 0.567
O=C(O)Cc1ccc2occc2c1 | inactive: 4.56 | inactive: -1.54 | inactive: 2.5
C[C@H]1C[C@@H]2[C@H]([C@@H](O)C[C@@]3(C)[C@H]2CC[C@]3(O)C(=O)CO)[C@@]2(C)C=CC(=O)C=C12 [Methylprednisolone] |  | inactive: 0.619 | 
C[C@H]1C[C@@H]2[C@H]([C@@H](O)C[C@@]3(C)[C@H]2CC[C@]3(O)C(=O)CO)[C@@]2(C)C=CC(=O)C=C12 | inactive: 0.384 |  | inactive: 2.38
CC(C)(O)CC[C@H](C[C@H](O)[C@H](Cc1cccc(F)c1)NC(=O)c1cnc2ccccc2n1)C(N)=O | active: 7.96 | inactive: -0.0563 | inactive: -0.865
CCCNCC(O)c1oc2ccccc2c1CCc1ccccc1 (centres undefined) | inactive: -0.711 | inactive: 2.26 | inactive: 1.42
CC(C)S(=O)(=O)N[C@@H]1COC[C@@H]1Oc1ccc(-c2ccc(C#N)s2)cc1 | inactive: -0.988 | inactive: 1.59 | inactive: 1.63
COc1cc(C)c(/C=C/C(C)=C/C=C/C(C)=C/C(=O)O)c(C)c1C [acitretin] |  | inactive: -1.41 | 
COc1cc(C)c(/C=C/C(C)=C/C=C/C(C)=C/C(=O)O)c(C)c1C | inactive: -0.39 |  | inactive: -1.71
N#Cc1cc(Cl)cc(Oc2cc(OCc3n[nH]c4nc(N)ccc34)ccc2Cl)c1 | inactive: 1.38 | inactive: -2.02 | inactive: 0.623
Cn1ccc2c1C(O)CCN(CCCN1CCN(c3ccc(F)cc3)CC1)C2=O (centres undefined) | inactive: -0.837 | inactive: 1.25 | inactive: -0.431
CNC(=O)N(N(CCCl)S(C)(=O)=O)S(C)(=O)=O [laromustine] | inactive: -0.788 | inactive: -1.19 | inactive: -1.16
CCC(NC(C)C)C(O)c1ccc(O)c2nc(O)ccc12 (centres undefined) [procaterol] |  | inactive: -0.844 | 
CCC(NC(C)C)C(O)c1ccc(O)c2nc(O)ccc12 (centres undefined) [procaterol, Innovata] | inactive: -1.78 |  | inactive: 1.34

SMILES | TEAD-luciferase reporter activity (compound concentration: 200 nM) | TEAD-luciferase reporter activity (compound concentration: 2 uM) | TEAD-luciferase reporter activity (compound concentration: 10 uM)
O=S1(=O)c2ccc(F)cc2Oc2cc(OCC(F)(F)F)ccc21 | inactive: -0.803 | inactive: 0.544 | inactive: 2.59
CN(C)/C=N/c1cccc(O)n1 | inactive: -0.345 | inactive: -0.189 | inactive: -1.45
CC(C)C[C@@H]1NC(=O)[C@H](CCCN)NC(=O)[C@H](C(C)C)NC(=O)[C@H](Cc2ccc(O)cc2)N[C@@H](CCC(=O)O)C(=O)N[C@@H](CC(N)=O)C(=O)[C@@H](Cc2ccccc2)NC(=O)[C@H](Cc2ccccc2)NC(=O)[C@@H]2CCCN2C(=O)[C@@H](Cc2ccccc2)NC1=O | inactive: -2.53 | inactive: 0.206 | inactive: 0.212
CC[N+](C)(CC)CCSC1=CC(c2ccc(Sc3ccccc3)cc2)=Nc2ccccc2N1 [Tibenzonium] | inactive: 1.11 | inactive: -0.206 | inactive: -0.907
CC1=C(/C=C/C(C)=C/C=C/C(C)=C/C(=O)Nc2ccc(O)cc2)C(C)(C)CCC1 [Retinoic acid p-hydroxyanilide] | inactive: -0.432 |  | inactive: -1.29
CC1=C(/C=C/C(C)=C/C=C/C(C)=C/C(=O)Nc2ccc(O)cc2)C(C)(C)CCC1 [fenretinide] |  | inactive: -2.14 | 
Nc1c(C(=O)c2cccc(OCC(O)CO)c2)cnn1-c1ccc(F)cc1 (centres undefined) | inactive: -0.79 | inactive: -1.41 | inactive: -0.484
CC#CC(=O)Nc1cc2c(Nc3ccc(F)c(Cl)c3)ncnc2cn1 | inactive: -2.66 | inactive: -0.572 | inactive: 0.705
Clc1ccc(Nc2c3ccccc3nc3ccccc23)cc1Cl | inactive: -0.868 | inactive: -1.98 | inactive: 0.437
OCCOc1ccc(C2CCCCC2)cc1 | inactive: 0.101 | inactive: 2.11 | inactive: 0.879
Cc1cccc(-c2[nH]c(Cc3cccc(C(N)=O)c3)nc2-c2ccc3nccnc3c2)n1 | inactive: 0.7 | inactive: -0.728 | inactive: 0.178
COc1ccccc1N1CCN(C(=O)Cn2c(=O)[nH]c3ccccc3c2=O)CC1 | inactive: 4.37 | inactive: -0.974 | inactive: 2.56
Cc1ccc(N(CC2=NCCN2)c2cccc(O)c2)cc1 [Phentolamine Mesylate] | inactive: -1.24 |  | inactive: -0.643
Cc1ccc(N(CC2=NCCN2)c2cccc(O)c2)cc1 [Phentolamine mesilate] |  | inactive: -0.218 | 
CCCc1c(OCc2cccn3c(=O)c(-c4nnn[nH]4)cnc23)ccc(C(C)=O)c1O | inactive: -2.53 | inactive: -1.01 | inactive: -1.17
CCc1cnn2c(NCc3ccc[n+]([O-])c3)cc(N3CCCC[C@H]3CCO)nc12 [Dinaciclib] | inactive: -0.902 | inactive: -2.21 | inactive: -2.36
COC(=O)c1cnc(Nc2cccc(Cl)c2)nc1C(F)(F)F | inactive: -0.328 | inactive: 1.42 | inactive: 1.04
CCN(CC)C(C)CC(=O)Nc1ccccc1 (centres undefined) | inactive: 0.528 | inactive: -1.19 | inactive: -1.04
CC(=O)OCC(COC(C)=O)OCn1cnc2cnc(N)nc21 | inactive: -1.82 | inactive: -0.418 | inactive: -0.0183
CCCN(CCC)C(=O)C(CCC(=O)OCCCN1CCN(CCOC(=O)Cc2c(C)n(C(=O)c3ccc(Cl)cc3)c3ccc(OC)cc23)CC1)NC(=O)c1ccccc1 (centres undefined) [Proglumetacin] | inactive: -0.922 | inactive: -0.782 | inactive: 0.125
N[C@@H](Cc1c[nH]oc1=O)C(=O)O | inactive: -1.54 | inactive: -0.0899 | inactive: -0.743
CC1(C)OC(=O)C(OCC2CC2)=C1c1ccc(S(C)(=O)=O)cc1 [Firocoxib] | inactive: -0.899 | inactive: 1.56 | inactive: -1.23
CCC(=O)O[C@]1(C(=O)COC)[C@@H](C)C[C@H]2[C@@H]3CCC4=CC(=O)C=CC4(C)[C@@]3(F)[C@@H](O)CC21C (some centres undefined) | inactive: 0.77 | inactive: -0.719 | inactive: 3.73
N[C@@H]1[C@H]2CN(c3nc4c(cc3F)c(=O)c(C(=O)O)cn4-c3ccc(F)cc3F)C[C@@H]12 [trovafloxacin mesilate] | inactive: -0.785 | inactive: -0.594 | inactive: 0.189
CS(=O)(=O)c1ccc(C2=C(c3ccc(F)cc3)C(=O)OC2)c(F)c1 | inactive: -1.21 | inactive: -0.429 | inactive: 0.394
CCCCCCCCCCCCCCCCSCC(COC)COP(=O)([O-])OCC[N+](C)(C)C (centres undefined) [Ilmofosine] | inactive: 4.16 | inactive: -0.154 | inactive: 2.44

Part of the list above, with tabs.
SMILES	TEAD-luciferase reporter activity (compound concentration: 200 nM)	TEAD-luciferase reporter activity (compound concentration: 2 uM)	TEAD-luciferase reporter activity (compound concentration: 10 uM)
C=C[C@@]1(C)CC(=O)[C@]2(O)[C@@]3(C)[C@@H](O)CCC(C)(C)[C@@H]3[C@H](O)[C@H](OC(C)=O)[C@@]2(C)O1 [Colforsin]	inactive: -2.19	inactive: -1.18	inactive: -0.851
O=C([O-])CCC(=O)OCC(NC(=O)C(Cl)Cl)C(O)c1ccc([N+](=O)[O-])cc1 (centres undefined)	inactive: 3.85	inactive: -1.71	inactive: 2.1
CCC1(CC)O[C@@H]2C[C@H]3[C@@H]4CCC5=CC(=O)C=CC5(C)[C@@]4(F)[C@@H](O)CC3(C)C2(C(=O)CO)O1 (some centres undefined)	inactive: 0.534	inactive: -0.607	inactive: -0.905
